# PubChem BioAssay AID743121 | NCATS | 2013
# Assay: 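Partners whose loss is lethal together with topoisomerase I blockade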 (primary screen)
# Cell system: MDA-MB-231 cells, a human breast cancer line
# Reagents: single siRNA against human genes, 20 nM siRNA (0.8 pmol per well)
# Timing: 120 h (drug added 48 h after transfection, read 72 h later)
# Treatment: camptothecin 20 nM (about EC30) for 72 h; vehicle 0.1% DMSO in parallel plates
# Detection: 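Cell viability by ATP luminescence (CellTiter-Glo) as % of non-targeting siRNA wells, and the log2 ratio of viability without drug over viability with camptothecin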
# Direction: log2 vehicle/camptothecin viability: higher = stronger sensitisation to camptothecin; viability with camptothecin: higher = more viable cells
# Active means: 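Each gene scored by redundant siRNA activity (RSA) over its individual siRNA ratios; a gene is called active at p < 0.001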
# In all, the deposit lists about 26,000 reagents; shown is a random part of them. 167 of all reagents (0.63%) were called active. 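Calls are per gene from RSA p-values that are not deposited; an individual active-marked siRNA can sensitise only weakly.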 A number with no mark means an inactive call. The numbers tell different reagents against one gene apart. Further read-outs or replicates are left out here.
Gene,reagent,log2 vehicle/camptothecin viability,viability with camptothecin (% of control)
SERPINB12,1,-0.187,116
SERPINB12,2,-0.29,120
SERPINB12,3,0.0876,45.4
LGALS3BP,1,-0.312,68.1
LGALS3BP,2,-0.248,68.3
LGALS3BP,3,-0.275,58.5
LGALS3BP,4,-0.104,3.2
TANK,1,-0.0769,82.2
TANK,2,-0.0109,82.3
TANK,3,-0.227,77.8
TANK,4,-0.518,88.7
ACLY,1,-0.467,85.2
ACLY,2,-0.337,76.3
ACLY,3,0.677,46.7
MTMR14,1,0.0419,96.6
MTMR14,2,-0.0721,81.4
MTMR14,3,-0.0403,88
MTMR14,4,1.1,26.6
CAMK2A,1,-0.367,87
CAMK2A,2,-0.0782,89.9
CAMK2A,3,0.0999,96.5
CAMK2A,4,-0.0827,87.5

Laid out differently: 11 of the entries above
{"Gene": "SERPINB12", "reagent": 2, "log2 vehicle/camptothecin viability": -0.29, "viability with camptothecin (% of control)": 120}
{"Gene": "SERPINB12", "reagent": 3, "log2 vehicle/camptothecin viability": 0.0876, "viability with camptothecin (% of control)": 45.4}
{"Gene": "LGALS3BP", "reagent": 1, "log2 vehicle/camptothecin viability": -0.312, "viability with camptothecin (% of control)": 68.1}
{"Gene": "LGALS3BP", "reagent": 2, "log2 vehicle/camptothecin viability": -0.248, "viability with camptothecin (% of control)": 68.3}
{"Gene": "LGALS3BP", "reagent": 3, "log2 vehicle/camptothecin viability": -0.275, "viability with camptothecin (% of control)": 58.5}
{"Gene": "LGALS3BP", "reagent": 4, "log2 vehicle/camptothecin viability": -0.104, "viability with camptothecin (% of control)": 3.2}
{"Gene": "TANK", "reagent": 1, "log2 vehicle/camptothecin viability": -0.0769, "viability with camptothecin (% of control)": 82.2}
{"Gene": "TANK", "reagent": 2, "log2 vehicle/camptothecin viability": -0.0109, "viability with camptothecin (% of control)": 82.3}
{"Gene": "TANK", "reagent": 3, "log2 vehicle/camptothecin viability": -0.227, "viability with camptothecin (% of control)": 77.8}
{"Gene": "TANK", "reagent": 4, "log2 vehicle/camptothecin viability": -0.518, "viability with camptothecin (% of control)": 88.7}
{"Gene": "ACLY", "reagent": 1, "log2 vehicle/camptothecin viability": -0.467, "viability with camptothecin (% of control)": 85.2}

The listing continues:
Gene,reagent,log2 vehicle/camptothecin viability,viability with camptothecin (% of control)
IBSP,1,-0.0677 (active),99.7
IBSP,2,0.846 (active),11.6
IBSP,3,1.12 (active),11.6
NRP2,1,-0.0549,59.5
NRP2,2,0.486,40.1
NRP2,3,-0.0648,80.6
PSTPIP2,1,-0.543,81.4
PSTPIP2,2,-0.726,101
PSTPIP2,3,-0.102,86.1
PSTPIP2,4,-0.25,83.5
SLC7A10,1,-0.0502,57.6
SLC7A10,2,-0.123,26.9
SLC7A10,3,0.0513,92.3
SLC7A10,4,-0.369,25.6
MNX1,1,1.01,43.2
MNX1,2,-0.662,112
MNX1,3,-0.498,48.9
MNX1,4,0.0831,82.9
FFAR1,1,0.688,40.3
FFAR1,2,-0.447,102
FFAR1,3,-0.146,31.7
FFAR1,4,0.0545,54.5
ACO1,1,-0.158,82.5
ACO1,2,0.104,50.6
ACO1,3,0.442,54.9
ACO1,4,-0.0712,61.2
ASB15,1,-0.22,58.9
ASB15,2,-0.0202,74.1
ASB15,3,0.0717,108
JAM3,1,-0.281,73.3
JAM3,2,0.0349,94.8
JAM3,3,0.516,64.4
SERPINC1,1,-0.21,61.2
SERPINC1,2,-0.399,75.6
SERPINC1,3,-0.102,93.7
ENPP1,1,-0.565,79.9
ENPP1,2,0.27,38.7
ENPP1,3,0.106,89.6
ENPP1,4,0.562,50.8
BIRC2,1,0.84,48.6
BIRC2,2,-0.439,13.1
BIRC2,3,0.122,49.9
BIRC2,4,-0.0586,83.8
PPARGC1B,1,-0.148,87
PPARGC1B,2,-0.331,92.4
PPARGC1B,3,0.822,46.6
